Source: PubChem BioAssay AID1508597 (Cure First, 2020)

Screen: 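Knock-downs altering ovarian cancer cell survival with or without PARP inhibitor rucaparib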 (primary screen)
Cell system: human ovarian carcinoma lines grown from tumours: OCI-P5x (papillary serous) and OCI-C5x (clear cell)
Reagents: siRNA pool against human genes, 1.25 pmol siRNA per well
Duration: 72 h or 96 h, depending on the cell culture
Treatment: rucaparib 20 µM (about IC30) or vehicle, present until read-out
Rucaparib or vehicle: Rucaparib
Cell line: OCI-C5x (clear cell)
Measurement: 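ATP luminescence measured at 72 or 96 h according to the culture, then normalised and expressed as percent viability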
Reading the numbers: viability, normalised: higher = more viable cells remaining
Hit rule: 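Active when normalised viability falls below 80 percent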
Calls: active = viability under 80%; inactive = viability 80% or more
This is a random part of the about 2,100 reagents, under one of the conditions tested. 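Calls flag viability under 80% in either arm, not effects specific to rucaparib; the reference for percent is not stated.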 Unmarked entries are inactive. The record does not give: the 100% reference.

DHX36 [SID405528217], technical replicate 1 scored viability, normalised (%) = 38.6 (active). For DHX36 [SID405528217], technical replicate 2, the entry reads viability, normalised (%) = 34.7 (active). DHX36 [SID405528217], technical replicate 3 gave viability, normalised (%) = 57 (active). For JUN [SID405526922], technical replicate 1 the deposit lists viability, normalised (%) = 45.9 (active). JUN [SID405526922], technical replicate 2 showed viability, normalised (%) = 43.5 (active). JUN [SID405526922], technical replicate 3 scored viability, normalised (%) = 42.6 (active).

ERBB3 [SID405527890], technical replicate 1 gave viability, normalised (%) = 42.3 (active). For ERBB3 [SID405527890], technical replicate 2, the entry reads viability, normalised (%) = 30.8 (active). ERBB3 [SID405527890], technical replicate 3 gave viability, normalised (%) = 49.9 (active). With MPP3 [SID405528575], technical replicate 1 the deposit lists viability, normalised (%) = 51.2 (active). MPP3 [SID405528575], technical replicate 2 showed viability, normalised (%) = 50.2 (active). For MPP3 [SID405528575], technical replicate 3, the values are viability, normalised (%) = 47.4 (active).

SRMS [SID405527500], technical replicate 1 scored viability, normalised (%) = 43.4 (active). With SRMS [SID405527500], technical replicate 2, the entry reads viability, normalised (%) = 68.1 (active). With SRMS [SID405527500], technical replicate 3, the entry reads viability, normalised (%) = 50.5 (active). With KSR2 [SID405527800], technical replicate 1, the values are viability, normalised (%) = 74.7 (active). For KSR2 [SID405527800], technical replicate 2, the values are viability, normalised (%) = 55.4 (active). With KSR2 [SID405527800], technical replicate 3 the deposit lists viability, normalised (%) = 59.1 (active).

With DNMT3B [SID405528236], technical replicate 1, the values are viability, normalised (%) = 51.2 (active). For DNMT3B [SID405528236], technical replicate 2, the entry reads viability, normalised (%) = 56.3 (active). For DNMT3B [SID405528236], technical replicate 3 the deposit lists viability, normalised (%) = 42.4 (active).

Sorted by “viability, normalised (%)” (high to low): some entries from above.
MPP3 [SID405528575], technical replicate 2: viability, normalised (%) = 50.2 (active)
MPP3 [SID405528575], technical replicate 3: viability, normalised (%) = 47.4 (active)
